Source: the supplement of paper PMC8728848
Some of the results follow.

Key:
Experiment in all cases: glycan array binding signal (z-score within array); higher = stronger binding
Conditions in all cases: glycan notation: IUPAC condensed, linker removed
[1] = molecular target: Gal(b1-3)GalNAc(a1-3)[Fuc(a1-2)]Gal(b1-4)GlcNAc
Summary of the method: (§1)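 The binding signal is a Z-score computed within each array. Data were drawn from 3228 arrays in the Consortium for Functional Glycomics database, restricted to those with a known protein sequence. Scores were averaged over arrays of the same protein sequence at different concentrations or buffers, and over linkers, and negative values can be taken as non-binding.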

[2] = molecular target: Gal(b1-3)GalNAc(b1-3)Gal(a1-4)Gal(b1-4)Glc
Summary of the method: as §1

[3] = molecular target: Gal(b1-3)GalNAc(b1-4)Gal(b1-4)Glc
Summary of the method: as §1

[4] = molecular target: Gal(b1-3)GalNAc(b1-4)[Neu5Ac(a2-3)]Gal(b1-4)Glc
Summary of the method: as §1

Gal(b1-3)GlcNAc = molecular target: Gal(b1-3)GlcNAc
Summary of the method: as §1

[5] = molecular target: Gal(b1-3)GlcNAc(a1-6)Gal(b1-4)GlcNAc
Summary of the method: as §1

[6] = molecular target: Gal(b1-3)GlcNAc(b1-2)Man(a1-3)[Gal(b1-3)GlcNAc(b1-2)Man(a1-6)]Man(b1-4)GlcNAc(b1-4)GlcNAc
Summary of the method: as §1

[7] = molecular target: Gal(b1-3)GlcNAc(b1-2)Man(a1-3)[Gal(b1-3)GlcNAc(b1-2)Man(a1-6)]Man(b1-4)GlcNAc(b1-4)[Fuc(a1-6)]GlcNAc
Summary of the method: as §1

[8] = molecular target: Gal(b1-3)GlcNAc(b1-3)Gal(b1-3)GlcNAc
Summary of the method: as §1

[9] = molecular target: Gal(b1-3)GlcNAc(b1-3)Gal(b1-4)Glc
Summary of the method: as §1

[10] = molecular target: Gal(b1-3)GlcNAc(b1-3)Gal(b1-4)GlcNAc
Summary of the method: as §1

[11] = molecular target: Gal(b1-3)GlcNAc(b1-3)Gal(b1-4)GlcNAc(b1-6)[Gal(b1-3)GlcNAc(b1-3)]Gal(b1-4)Glc
Summary of the method: as §1

[12] = molecular target: Gal(b1-3)GlcNAc(b1-3)Gal(b1-4)[Fuc(a1-3)]GlcNAc(b1-6)[Gal(b1-3)GlcNAc(b1-3)]Gal(b1-4)Glc
Summary of the method: as §1

[13] = molecular target: Gal(b1-3)GlcNAc(b1-3)GalNAc
Summary of the method: as §1

[14] = molecular target: Gal(b1-3)GlcNAc(b1-6)Gal(b1-4)GlcNAc
Summary of the method: as §1

[15] = molecular target: Gal(b1-3)[Fuc(a1-4)]GlcNAc
Summary of the method: as §1

[16] = molecular target: Gal(b1-3)[Fuc(a1-4)]GlcNAc(b1-2)Man(a1-3)[Gal(b1-3)[Fuc(a1-4)]GlcNAc(b1-2)Man(a1-6)]Man(b1-4)GlcNAc(b1-4)GlcNAc
Summary of the method: as §1

[17] = molecular target: Gal(b1-3)[Fuc(a1-4)]GlcNAc(b1-2)Man(a1-3)[Gal(b1-3)[Fuc(a1-4)]GlcNAc(b1-2)Man(a1-6)]Man(b1-4)GlcNAc(b1-4)[Fuc(a1-6)]GlcNAc
Summary of the method: as §1

[18] = molecular target: Gal(b1-3)[Fuc(a1-4)]GlcNAc(b1-3)Gal(b1-3)[Fuc(a1-4)]GlcNAc
Summary of the method: as §1

[19] = molecular target: Gal(b1-3)[Fuc(a1-4)]GlcNAc(b1-3)Gal(b1-4)GlcNAc
Summary of the method: as §1

[20] = molecular target: Gal(b1-3)[Fuc(a1-4)]GlcNAc(b1-3)Gal(b1-4)[Fuc(a1-3)]GlcNAc
Summary of the method: as §1

[21] = molecular target: Gal(b1-3)[GlcNAc(b1-6)]GalNAc
Summary of the method: as §1

[22] = molecular target: Gal(b1-3)[Neu5Ac(a2-6)]GalNAc
Summary of the method: as §1

[23] = molecular target: Gal(b1-3)[Neu5Ac(a2-6)]GlcNAc(b1-6)Gal(b1-4)Glc
Summary of the method: as §1

[24] = molecular target: Gal(b1-3)[Neu5Ac(b2-6)]GalNAc
Summary of the method: as §1

[25] = molecular target: Gal(b1-4)GalNAc(a1-3)[Fuc(a1-2)]Gal(b1-4)GlcNAc
Summary of the method: as §1

[26] = molecular target: Gal(b1-4)GalNAc(b1-3)[Fuc(a1-2)]Gal(b1-4)GlcNAc
Summary of the method: as §1

Gal(b1-4)Glc = molecular target: Gal(b1-4)Glc
Summary of the method: as §1

Gal(b1-4)Glc6S = molecular target: Gal(b1-4)Glc6S
Summary of the method: as §1

Gal(b1-4)GlcNAc = molecular target: Gal(b1-4)GlcNAc
Summary of the method: as §1

[27] = molecular target: Gal(b1-4)GlcNAc(a1-6)Gal(b1-4)GlcNAc
Summary of the method: as §1

[28] = molecular target: Gal(b1-4)GlcNAc(b1-2)Man(a1-3)Man(b1-4)GlcNAc(b1-4)GlcNAc
Summary of the method: as §1

[29] = molecular target: Gal(b1-4)GlcNAc(b1-2)Man(a1-3)[Gal(b1-4)GlcNAc(b1-2)Man(a1-6)]Man(b1-4)GlcNAc(b1-4)GlcNAc
Summary of the method: as §1

[30] = molecular target: Gal(b1-4)GlcNAc(b1-2)Man(a1-3)[Gal(b1-4)GlcNAc(b1-2)Man(a1-6)]Man(b1-4)GlcNAc(b1-4)[Fuc(a1-6)]GlcNAc
Summary of the method: as §1

[31] = molecular target: Gal(b1-4)GlcNAc(b1-2)Man(a1-3)[GlcNAc(b1-2)Man(a1-6)]Man(b1-4)GlcNAc(b1-4)GlcNAc
Summary of the method: as §1

[32] = molecular target: Gal(b1-4)GlcNAc(b1-2)Man(a1-3)[Man(a1-6)]Man(b1-4)GlcNAc(b1-4)GlcNAc
Summary of the method: as §1

[33] = molecular target: Gal(b1-4)GlcNAc(b1-2)Man(a1-6)Man(b1-4)GlcNAc(b1-4)GlcNAc
Summary of the method: as §1

B1: BSR4 (Toxoplasma gondii), Q95NL6 (protein)
chain: MVMMGSMQQRRGGLRSNARQLLAVCMSGVVFFSSGQAVADNLLEGLLHRTLQQQVEVTSRLTVAGSDAKCDFFTPATQDSPPVSGSLTLSKGRMTATFECSATQALSISTIPTNIEQNVCDPKKTTNGTVCQFGANGSAGTEVTLKDLLETDRIVNWKVNEQREESNKSQKWSLELHNEDLPLTDKAFVVGCQATSAARGTESGKTAACKLTVNVEARASSLAENNVVTCAYGKGSNPNPVEVEMSTEKNTLTINCGSDGSLQPTTYAEEYCVADSKDVNRCSTTRFVEIFPKFLKSWWVTETQKRTSATLTIPQTDLPEADQQFLVGCVPKKTAPEDPKKDKESGTETGAPTSCTVLVTVKAASSASHASPTVQILAAASSAAA
glycan array binding signal (z-score) [1]: -0.147
glycan array binding signal (z-score) [2]: -0.349
glycan array binding signal (z-score) [3]: -0.183
glycan array binding signal (z-score) [4]: -0.254
glycan array binding signal (z-score) (Gal(b1-3)GlcNAc): -0.694
glycan array binding signal (z-score) [5]: -0.08
glycan array binding signal (z-score) [6]: -0.329
glycan array binding signal (z-score) [7]: -0.009
glycan array binding signal (z-score) [8]: -0.905
glycan array binding signal (z-score) [9]: -0.024
glycan array binding signal (z-score) [10]: -0.006
glycan array binding signal (z-score) [11]: -0.158
glycan array binding signal (z-score) [12]: -0.207
glycan array binding signal (z-score) [13]: 0.256
glycan array binding signal (z-score) [14]: 0.471
glycan array binding signal (z-score) [15]: 0.114
glycan array binding signal (z-score) [16]: 1.39
glycan array binding signal (z-score) [17]: 0.107
glycan array binding signal (z-score) [18]: -0.029
glycan array binding signal (z-score) [19]: 0.277
glycan array binding signal (z-score) [20]: 0.393
glycan array binding signal (z-score) [21]: -0.408
glycan array binding signal (z-score) [22]: -0.014
glycan array binding signal (z-score) [23]: -0.387
glycan array binding signal (z-score) [24]: -0.12
glycan array binding signal (z-score) [25]: 0.377
glycan array binding signal (z-score) [26]: 0.315
glycan array binding signal (z-score) (Gal(b1-4)Glc): -0.439
glycan array binding signal (z-score) (Gal(b1-4)Glc6S): 0.38
glycan array binding signal (z-score) (Gal(b1-4)GlcNAc): -0.355
glycan array binding signal (z-score) [27]: 0.035
glycan array binding signal (z-score) [28]: -0.691
glycan array binding signal (z-score) [29]: 0.038
glycan array binding signal (z-score) [30]: 0.794
glycan array binding signal (z-score) [31]: -0.349
glycan array binding signal (z-score) [32]: 0.292
glycan array binding signal (z-score) [33]: -0.338
